Measurements taken from the supplement of paper PMC10849652.
The other results are listed elsewhere or left out.

By UniProt entry, the sequences of proteins in these tests, tags left out. Where a name states a change or a piece, a line headed by the entry shows the natural chain unless it says otherwise.
UniProt P56377: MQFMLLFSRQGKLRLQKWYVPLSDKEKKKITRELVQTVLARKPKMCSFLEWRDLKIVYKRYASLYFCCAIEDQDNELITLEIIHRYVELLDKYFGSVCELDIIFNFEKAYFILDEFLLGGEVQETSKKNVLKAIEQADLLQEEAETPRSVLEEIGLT
UniProt Q9UM13, whole entry, looked up: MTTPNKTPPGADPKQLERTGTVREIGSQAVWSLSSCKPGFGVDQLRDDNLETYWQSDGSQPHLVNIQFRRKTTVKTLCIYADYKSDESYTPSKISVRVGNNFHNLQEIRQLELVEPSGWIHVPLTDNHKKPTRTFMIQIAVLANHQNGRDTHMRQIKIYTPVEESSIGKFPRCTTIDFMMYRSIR
UniProt Q6ZTN6: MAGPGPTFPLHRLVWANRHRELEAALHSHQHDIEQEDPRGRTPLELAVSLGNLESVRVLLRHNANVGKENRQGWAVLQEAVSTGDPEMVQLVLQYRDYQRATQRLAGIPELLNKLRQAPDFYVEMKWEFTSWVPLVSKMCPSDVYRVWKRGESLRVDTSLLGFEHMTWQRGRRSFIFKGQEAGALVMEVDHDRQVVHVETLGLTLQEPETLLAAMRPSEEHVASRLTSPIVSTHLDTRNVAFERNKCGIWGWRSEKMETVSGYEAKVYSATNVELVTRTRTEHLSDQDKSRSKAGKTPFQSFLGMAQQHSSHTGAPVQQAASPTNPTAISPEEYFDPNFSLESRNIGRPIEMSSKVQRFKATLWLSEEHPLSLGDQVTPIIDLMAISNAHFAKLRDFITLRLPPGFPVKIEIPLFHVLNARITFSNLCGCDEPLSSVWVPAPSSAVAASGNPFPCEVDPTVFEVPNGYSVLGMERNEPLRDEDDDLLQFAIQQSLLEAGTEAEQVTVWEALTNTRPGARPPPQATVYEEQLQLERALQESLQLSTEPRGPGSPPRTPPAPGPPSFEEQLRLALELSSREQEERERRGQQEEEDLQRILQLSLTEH
UniProt Q92572: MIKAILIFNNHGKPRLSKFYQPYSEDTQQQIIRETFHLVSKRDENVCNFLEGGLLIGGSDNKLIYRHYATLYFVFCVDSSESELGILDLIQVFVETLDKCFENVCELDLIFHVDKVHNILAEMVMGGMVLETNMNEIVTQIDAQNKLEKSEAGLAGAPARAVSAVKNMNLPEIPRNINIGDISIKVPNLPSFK
UniProt P58335, whole entry, looked up: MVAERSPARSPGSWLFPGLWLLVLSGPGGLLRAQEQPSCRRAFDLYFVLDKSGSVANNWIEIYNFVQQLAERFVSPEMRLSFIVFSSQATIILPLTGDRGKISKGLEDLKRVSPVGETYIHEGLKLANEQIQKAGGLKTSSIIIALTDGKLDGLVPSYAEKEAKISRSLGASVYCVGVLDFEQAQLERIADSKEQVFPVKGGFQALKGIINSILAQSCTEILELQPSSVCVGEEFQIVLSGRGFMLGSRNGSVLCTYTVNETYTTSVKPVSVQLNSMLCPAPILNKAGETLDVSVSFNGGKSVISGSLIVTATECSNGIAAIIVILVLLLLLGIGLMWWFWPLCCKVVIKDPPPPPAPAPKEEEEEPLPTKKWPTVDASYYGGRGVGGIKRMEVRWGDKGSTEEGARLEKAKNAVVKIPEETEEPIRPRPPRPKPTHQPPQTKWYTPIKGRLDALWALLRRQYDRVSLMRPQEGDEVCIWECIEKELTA
UniProt Q13367: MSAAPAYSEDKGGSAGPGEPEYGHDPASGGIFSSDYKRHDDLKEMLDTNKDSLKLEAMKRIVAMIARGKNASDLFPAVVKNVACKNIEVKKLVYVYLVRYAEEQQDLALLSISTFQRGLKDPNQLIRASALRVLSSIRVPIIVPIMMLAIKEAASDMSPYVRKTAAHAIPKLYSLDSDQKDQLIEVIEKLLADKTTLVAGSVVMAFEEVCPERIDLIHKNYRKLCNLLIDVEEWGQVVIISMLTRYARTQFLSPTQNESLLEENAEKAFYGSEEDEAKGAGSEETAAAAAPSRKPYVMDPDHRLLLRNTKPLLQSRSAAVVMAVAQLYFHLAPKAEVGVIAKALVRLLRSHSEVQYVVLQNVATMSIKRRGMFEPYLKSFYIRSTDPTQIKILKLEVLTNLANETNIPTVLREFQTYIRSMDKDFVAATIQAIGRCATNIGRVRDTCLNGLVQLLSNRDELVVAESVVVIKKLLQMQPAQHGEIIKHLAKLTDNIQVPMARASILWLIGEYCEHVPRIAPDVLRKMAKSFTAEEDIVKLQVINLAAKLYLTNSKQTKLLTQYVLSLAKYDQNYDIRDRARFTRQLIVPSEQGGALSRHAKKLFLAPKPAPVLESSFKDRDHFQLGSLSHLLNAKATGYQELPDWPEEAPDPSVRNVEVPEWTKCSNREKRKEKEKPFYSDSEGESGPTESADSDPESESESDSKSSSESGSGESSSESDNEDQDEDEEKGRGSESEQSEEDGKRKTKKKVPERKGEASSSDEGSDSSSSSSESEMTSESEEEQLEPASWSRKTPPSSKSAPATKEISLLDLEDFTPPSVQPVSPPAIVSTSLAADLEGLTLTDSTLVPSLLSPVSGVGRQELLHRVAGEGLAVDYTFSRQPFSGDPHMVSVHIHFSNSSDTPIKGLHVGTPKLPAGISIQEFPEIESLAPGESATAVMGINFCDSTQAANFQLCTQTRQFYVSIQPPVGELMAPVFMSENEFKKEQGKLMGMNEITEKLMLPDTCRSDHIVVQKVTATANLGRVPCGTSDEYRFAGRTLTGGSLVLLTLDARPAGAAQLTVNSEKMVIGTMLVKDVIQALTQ
UniProt P54886: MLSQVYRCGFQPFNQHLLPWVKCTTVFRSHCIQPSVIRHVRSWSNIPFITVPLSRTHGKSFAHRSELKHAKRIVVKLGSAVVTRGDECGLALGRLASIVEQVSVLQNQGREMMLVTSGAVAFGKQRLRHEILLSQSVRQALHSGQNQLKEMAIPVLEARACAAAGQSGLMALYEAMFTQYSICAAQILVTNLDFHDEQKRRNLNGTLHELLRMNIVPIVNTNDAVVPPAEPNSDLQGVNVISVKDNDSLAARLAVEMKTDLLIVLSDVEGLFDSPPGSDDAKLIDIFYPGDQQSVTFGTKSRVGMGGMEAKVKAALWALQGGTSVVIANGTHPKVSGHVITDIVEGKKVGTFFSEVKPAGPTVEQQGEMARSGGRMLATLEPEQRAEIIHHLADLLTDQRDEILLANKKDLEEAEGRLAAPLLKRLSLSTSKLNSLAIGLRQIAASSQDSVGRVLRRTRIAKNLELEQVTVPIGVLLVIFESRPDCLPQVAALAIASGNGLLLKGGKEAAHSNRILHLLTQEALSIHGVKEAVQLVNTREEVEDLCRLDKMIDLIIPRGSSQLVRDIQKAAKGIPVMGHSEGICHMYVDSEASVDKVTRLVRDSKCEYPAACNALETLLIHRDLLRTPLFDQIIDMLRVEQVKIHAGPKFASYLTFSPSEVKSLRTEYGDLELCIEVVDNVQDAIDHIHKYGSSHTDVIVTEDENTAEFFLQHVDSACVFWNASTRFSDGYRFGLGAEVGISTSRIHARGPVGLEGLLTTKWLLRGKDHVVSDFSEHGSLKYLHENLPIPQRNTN
UniProt Q6NXT1: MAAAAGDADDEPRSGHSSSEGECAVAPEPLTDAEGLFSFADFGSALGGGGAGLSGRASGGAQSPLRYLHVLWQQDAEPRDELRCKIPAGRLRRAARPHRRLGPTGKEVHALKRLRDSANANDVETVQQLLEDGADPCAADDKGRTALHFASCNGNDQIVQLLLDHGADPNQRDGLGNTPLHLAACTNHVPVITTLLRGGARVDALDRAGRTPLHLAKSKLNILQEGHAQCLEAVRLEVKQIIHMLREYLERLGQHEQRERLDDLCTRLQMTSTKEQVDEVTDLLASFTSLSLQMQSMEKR
UniProt Q8NB46: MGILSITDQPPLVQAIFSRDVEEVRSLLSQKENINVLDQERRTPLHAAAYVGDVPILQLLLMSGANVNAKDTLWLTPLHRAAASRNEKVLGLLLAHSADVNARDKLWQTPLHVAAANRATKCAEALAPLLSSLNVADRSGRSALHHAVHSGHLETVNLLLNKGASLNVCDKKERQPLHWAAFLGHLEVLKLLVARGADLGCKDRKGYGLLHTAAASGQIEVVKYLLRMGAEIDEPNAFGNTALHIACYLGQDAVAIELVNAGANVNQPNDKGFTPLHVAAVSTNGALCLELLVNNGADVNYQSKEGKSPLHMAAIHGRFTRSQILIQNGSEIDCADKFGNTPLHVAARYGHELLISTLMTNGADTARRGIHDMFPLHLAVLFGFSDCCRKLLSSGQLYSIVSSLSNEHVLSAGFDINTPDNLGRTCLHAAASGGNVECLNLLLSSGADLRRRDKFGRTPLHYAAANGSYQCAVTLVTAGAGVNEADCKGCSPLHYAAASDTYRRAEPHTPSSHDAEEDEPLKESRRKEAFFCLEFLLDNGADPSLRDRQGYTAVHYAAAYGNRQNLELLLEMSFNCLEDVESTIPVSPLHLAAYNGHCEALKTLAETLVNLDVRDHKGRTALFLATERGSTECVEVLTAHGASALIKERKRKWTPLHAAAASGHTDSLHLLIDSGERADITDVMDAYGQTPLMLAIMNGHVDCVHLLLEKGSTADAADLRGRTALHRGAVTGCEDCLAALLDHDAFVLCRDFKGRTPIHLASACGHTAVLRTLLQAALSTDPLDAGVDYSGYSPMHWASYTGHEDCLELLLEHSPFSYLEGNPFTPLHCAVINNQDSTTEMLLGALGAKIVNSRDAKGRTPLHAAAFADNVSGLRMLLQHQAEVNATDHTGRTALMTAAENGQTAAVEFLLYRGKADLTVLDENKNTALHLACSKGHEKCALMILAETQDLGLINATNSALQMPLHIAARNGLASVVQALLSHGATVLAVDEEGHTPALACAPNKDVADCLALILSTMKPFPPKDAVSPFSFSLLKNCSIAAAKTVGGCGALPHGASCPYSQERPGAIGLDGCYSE
UniProt Q9UPM8: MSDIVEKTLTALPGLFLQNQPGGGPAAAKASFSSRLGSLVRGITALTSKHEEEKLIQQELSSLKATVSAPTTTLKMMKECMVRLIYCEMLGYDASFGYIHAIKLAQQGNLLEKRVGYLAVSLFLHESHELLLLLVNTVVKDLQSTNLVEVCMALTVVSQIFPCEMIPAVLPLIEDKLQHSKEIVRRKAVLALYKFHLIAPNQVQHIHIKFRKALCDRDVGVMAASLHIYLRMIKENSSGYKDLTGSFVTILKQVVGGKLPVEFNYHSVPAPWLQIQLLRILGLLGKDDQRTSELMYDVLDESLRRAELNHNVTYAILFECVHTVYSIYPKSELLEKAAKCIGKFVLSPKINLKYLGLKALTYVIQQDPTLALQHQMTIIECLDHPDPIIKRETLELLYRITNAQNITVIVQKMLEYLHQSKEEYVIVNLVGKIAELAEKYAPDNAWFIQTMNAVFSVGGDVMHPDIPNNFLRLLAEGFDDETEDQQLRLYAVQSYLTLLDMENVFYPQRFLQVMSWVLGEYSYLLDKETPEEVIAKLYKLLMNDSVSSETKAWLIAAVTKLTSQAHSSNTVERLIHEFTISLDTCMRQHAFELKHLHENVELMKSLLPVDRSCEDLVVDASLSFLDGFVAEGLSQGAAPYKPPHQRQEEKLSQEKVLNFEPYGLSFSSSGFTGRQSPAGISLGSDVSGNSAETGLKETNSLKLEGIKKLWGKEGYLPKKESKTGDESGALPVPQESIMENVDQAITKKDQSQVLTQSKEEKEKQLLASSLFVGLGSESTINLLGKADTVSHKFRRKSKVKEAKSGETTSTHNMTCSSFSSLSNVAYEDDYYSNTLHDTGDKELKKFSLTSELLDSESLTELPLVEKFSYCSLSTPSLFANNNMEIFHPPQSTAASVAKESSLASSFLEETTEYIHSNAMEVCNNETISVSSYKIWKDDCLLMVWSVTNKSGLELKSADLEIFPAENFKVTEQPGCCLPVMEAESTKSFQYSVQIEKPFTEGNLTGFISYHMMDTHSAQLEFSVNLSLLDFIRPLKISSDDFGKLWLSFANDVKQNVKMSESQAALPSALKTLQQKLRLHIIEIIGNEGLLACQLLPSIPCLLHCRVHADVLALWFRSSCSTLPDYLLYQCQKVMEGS
UniProt P51649: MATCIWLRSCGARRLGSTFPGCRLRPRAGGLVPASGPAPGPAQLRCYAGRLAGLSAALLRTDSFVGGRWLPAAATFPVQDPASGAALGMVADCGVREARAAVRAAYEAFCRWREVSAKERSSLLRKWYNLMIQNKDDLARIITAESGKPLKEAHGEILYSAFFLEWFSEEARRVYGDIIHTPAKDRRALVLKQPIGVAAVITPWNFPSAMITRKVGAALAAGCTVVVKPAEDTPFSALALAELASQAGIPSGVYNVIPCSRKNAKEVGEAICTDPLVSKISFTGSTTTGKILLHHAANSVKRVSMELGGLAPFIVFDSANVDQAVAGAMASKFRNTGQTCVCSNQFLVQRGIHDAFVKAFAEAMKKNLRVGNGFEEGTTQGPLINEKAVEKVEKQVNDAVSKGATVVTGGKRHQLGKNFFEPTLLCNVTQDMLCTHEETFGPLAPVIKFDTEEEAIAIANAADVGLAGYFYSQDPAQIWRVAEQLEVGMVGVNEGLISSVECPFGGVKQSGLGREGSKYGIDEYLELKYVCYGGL

compound: CC(C)(C)Cn1c(N)nc2ccc(-c3[nH]c(C(C)(C)C)nc3-c3ccc(F)cc3)nc21 [ralimetinib]; experiment: log2 fold change, soluble protein after heating vs DMSO (PISA); higher = thermal stabilisation; K562 lysate, 10 uM; active = over 0.2 and 3.5 SD of the protein, either way, in both replicates (recomputed)
Summary of the method: (§1)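 Pellets of K562 cells were dounce-homogenised in PBS pH 7.4 with 1 mM MgCl2, and the crude extract was held at 1 mg/mL protein for a 30 min treatment with 10 μM compound. Aliquots were heated for 3 min over 48°C-58°C and pooled before NP-40 was added to 0.5% at 4°C. The supernatant from 21,000xg for 90 min was quantified by TMTpro 16plex LC-MS/MS with channel sums equalised. Values are reported from duplicates as log-two fold change in thermal stability relative to solvent controls.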

log2 fold change, inactive:
AP1S2 isoform 2 (UniProt P56377) 0.058
ANAPC10 (UniProt Q9UM13) 0.035
ANKRD13D isoform 3 (UniProt Q6ZTN6) -0.078
AP3D1 isoform 5 (UniProt O14617) 0.028
ALKBH2 (UniProt Q6NS38) -0.014
AP3S1 (UniProt Q92572) 0.02
ALDH6A1 (UniProt Q02252) -0.064
ANGEL2 (UniProt Q5VTE6) -0.016
ALS2 (UniProt Q96Q42) -0.006
AKT2 (UniProt P31751) 0.026
ANXA2 isoform 2 (UniProt P07355) -0.009
ANP32A (UniProt P39687) 0.002
ANTXR2 isoform 4 (UniProt P58335) -0.035
AP3B2 isoform 4 (UniProt Q13367) 0.005
ALDH18A1 (UniProt P54886) 0.021
ANKRD54 (UniProt Q6NXT1) 0.063
ALG2 (UniProt Q9H553) 0.034
ALDH4A1 (UniProt P30038) 0.09
ALDH1A1 (UniProt P00352) 0.037
ANKRD52 (UniProt Q8NB46) -0.002
ANXA7 (UniProt P20073) 0
AMPD3 isoform 4 (UniProt Q01432) 0.037
ALDOA (UniProt P04075) 0.016
ANXA2 (UniProt H0YL33) -0.076
AMPD2 (UniProt Q01433) 0.007
AP4E1 (UniProt Q9UPM8) 0.038
AKT1 (UniProt P31749) 0.005
AP1G1 isoform 2 (UniProt O43747) 0.012
ANKHD1 isoform 6 (UniProt Q8IWZ3) 0.01
ANXA1 (UniProt P04083) -0.003
ALKBH8 isoform 4 (UniProt Q96BT7) 0.012
AMD1 (UniProt P17707) -0.02
ANLN (UniProt Q9NQW6) 0.02
ALDH5A1 isoform 2 (UniProt P51649) -0.015

compound: CC(C)(O)CC(=O)NCCn1ccc2ncnc(Nc3ccc(Oc4cccc(C(F)(F)F)c4)c(Cl)c3)c21; experiment: as above
Summary of the method: as §1

log2 fold change, inactive:
AP1S2 isoform 2 (UniProt P56377) 0.07
ANAPC10 (UniProt Q9UM13) 0.024
ANKRD13D isoform 3 (UniProt Q6ZTN6) -0.037
AP3D1 isoform 5 (UniProt O14617) -0.012
ALKBH2 (UniProt Q6NS38) -0.051
AP3S1 (UniProt Q92572) 0.003
ALDH6A1 (UniProt Q02252) -0.043
ANGEL2 (UniProt Q5VTE6) 0.006
ALS2 (UniProt Q96Q42) -0.034
AKT2 (UniProt P31751) 0.006
ANXA2 isoform 2 (UniProt P07355) 0.033
ANP32A (UniProt P39687) 0.188
ANTXR2 isoform 4 (UniProt P58335) -0.051
AP3B2 isoform 4 (UniProt Q13367) 0.022
ALDH18A1 (UniProt P54886) -0.015
ANKRD54 (UniProt Q6NXT1) -0.006
ALG2 (UniProt Q9H553) 0.037
ALDH4A1 (UniProt P30038) -0.011
ALDH1A1 (UniProt P00352) 0.037
ANKRD52 (UniProt Q8NB46) -0.025
ANXA7 (UniProt P20073) 0.021
AMPD3 isoform 4 (UniProt Q01432) -0.041
ALDOA (UniProt P04075) 0.007
ANXA2 (UniProt H0YL33) 0.129
AMPD2 (UniProt Q01433) -0.009
AP4E1 (UniProt Q9UPM8) -0.013
AKT1 (UniProt P31749) -0.023
AP1G1 isoform 2 (UniProt O43747) -0.016
ANKHD1 isoform 6 (UniProt Q8IWZ3) -0.018
ANXA1 (UniProt P04083) 0.007
ALKBH8 isoform 4 (UniProt Q96BT7) -0.03
AMD1 (UniProt P17707) -0.013
ANLN (UniProt Q9NQW6) -0.001
ALDH5A1 isoform 2 (UniProt P51649) 0.001
